± gives the standard deviation of the averaged measurements. Values are relative to the signal before dosing, not to a vehicle control; the signal also falls without drug.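 Labels refer to human fibroblasts, largely primary: uterine (C12385, HUF), lung (H6013), bone (Hs27A), adrenal (HADF), skin (WS1), plus mammary HMF and breast cancer-associated Hs343T. Cancer lines are basal-like or mesenchymal-like triple-negative breast cancer. The paper counts as hits responses shifting over 3x the replicate standard deviation. The tissue of the other fibroblasts is not given here.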
System: MDAMB436
Experiment: relative JC-1 red fluorescence (viability) vs pre-drug, coculture with fibroblast (fraction); higher = more viable cancer cells
Method: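 JC-1 labelled TNBC cells cocultured 1:1 (1,500 cells each) with CellTrace Violet stained primary or stromal fibroblasts in 384-well plates in FluoroBrite medium, treated with one of 42 anticancer drugs at 0.1, 1, 10 or 100 uM. JC-1 red fluorescence (mitochondrial integrity in cancer cells only) was read by plate reader every 8 h for 72 h. Values are normalised to each well's pre-drug value. The stock of one drug was tenfold lower, so its dose labels may be too high.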

COc1cc([C@@H]2c3cc4c(cc3[C@@H](O[C@@H]3O[C@@H]5CO[C@@H](C)O[C@H]5[C@H](O)[C@H]3O)[C@H]3COC(=O)[C@H]23)OCO4)cc(OC)c1O [Etoposide]
relative JC-1 red fluorescence
Conditions | 8 h | 16 h | 24 h | 32 h | 40 h | 48 h | 56 h | 64 h | 72 h
0.1 µM, coculture fibroblast: C12385 | 0.769 ± 0.021 | 0.71 ± 0.041 | 0.699 ± 0.049 | 0.625 ± 0.05 | 0.588 ± 0.059 | 0.576 ± 0.067 | 0.575 ± 0.079 | 0.566 ± 0.086 | 0.576 ± 0.088
0.1 µM, coculture fibroblast: H6013 | 0.8281 ± 0.0039 | 0.778 ± 0.071 | 0.782 ± 0.075 | 0.769 ± 0.1 | 0.769 ± 0.13 | 0.801 ± 0.14 | 0.767 ± 0.15 | 0.771 ± 0.16 | 0.737 ± 0.17
0.1 µM, coculture fibroblast: H6019 | 0.753 ± 0.052 | 0.715 ± 0.098 | 0.707 ± 0.14 | 0.642 ± 0.16 | 0.626 ± 0.19 | 0.618 ± 0.21 | 0.596 ± 0.22 | 0.579 ± 0.23 | 0.554 ± 0.22
0.1 µM, coculture fibroblast: H6076 | 0.673 ± 0.009 | 0.623 ± 0.0091 | 0.6317 ± 0.0017 | 0.609 ± 0.017 | 0.614 ± 0.015 | 0.591 ± 0.012 | 0.613 ± 0.013 | 0.613 ± 0.024 | 0.614 ± 0.027
0.1 µM, coculture fibroblast: H6231 | 0.766 ± 0.044 | 0.7277 ± 0.0049 | 0.75763 ± 0.00056 | 0.679 ± 0.0065 | 0.666 ± 0.014 | 0.643 ± 0.017 | 0.636 ± 0.028 | 0.613 ± 0.036 | 0.601 ± 0.041
0.1 µM, coculture fibroblast: HADF | 0.7748 ± 0.0059 | 0.7 ± 0.015 | 0.678 ± 0.014 | 0.644 ± 0.01 | 0.639 ± 0.012 | 0.673 ± 0.014 | 0.62 ± 0.016 | 0.617 ± 0.017 | 0.583 ± 0.016
0.1 µM, coculture fibroblast: HCFa | 0.776 ± 0.025 | 0.7216 ± 0.0028 | 0.6939 ± 0.0042 | 0.672 ± 0.011 | 0.662 ± 0.027 | 0.689 ± 0.037 | 0.625 ± 0.032 | 0.623 ± 0.042 | 0.564 ± 0.033
0.1 µM, coculture fibroblast: HCPF | 0.7325 ± 0.0013 | 0.666 ± 0.024 | 0.666 ± 0.033 | 0.607 ± 0.036 | 0.595 ± 0.04 | 0.571 ± 0.047 | 0.554 ± 0.055 | 0.546 ± 0.061 | 0.534 ± 0.064
0.1 µM, coculture fibroblast: HHSteC | 0.785 ± 0.016 | 0.762 ± 0.04 | 0.738 ± 0.053 | 0.709 ± 0.054 | 0.709 ± 0.07 | 0.731 ± 0.076 | 0.678 ± 0.09 | 0.663 ± 0.085 | 0.614 ± 0.082
0.1 µM, coculture fibroblast: HMF | 0.703 ± 0.024 | 0.642 ± 0.025 | 0.634 ± 0.028 | 0.593 ± 0.026 | 0.588 ± 0.027 | 0.56 ± 0.038 | 0.572 ± 0.041 | 0.565 ± 0.045 | 0.572 ± 0.049
0.1 µM, coculture fibroblast: HPFa | 0.903 ± 0.042 | 0.858 ± 0.012 | 0.842 ± 0.016 | 0.805 ± 0.022 | 0.803 ± 0.02 | 0.819 ± 0.016 | 0.7359 ± 0.0031 | 0.71 ± 0.0081 | 0.644 ± 0.0098
0.1 µM, coculture fibroblast: HUF | 0.837 ± 0.049 | 0.769 ± 0.071 | 0.755 ± 0.067 | 0.686 ± 0.071 | 0.641 ± 0.074 | 0.626 ± 0.076 | 0.61 ± 0.076 | 0.614 ± 0.081 | 0.612 ± 0.087
0.1 µM, coculture fibroblast: Hs5 | 0.73 ± 0.031 | 0.699 ± 0.043 | 0.705 ± 0.051 | 0.664 ± 0.053 | 0.665 ± 0.062 | 0.631 ± 0.063 | 0.654 ± 0.078 | 0.629 ± 0.075 | 0.633 ± 0.084
0.1 µM, coculture fibroblast: Hs27A | 0.8 ± 0.025 | 0.743 ± 0.019 | 0.7368 ± 0.0026 | 0.7251 ± 0.0069 | 0.702 ± 0.013 | 0.78 ± 0.018 | 0.691 ± 0.032 | 0.679 ± 0.038 | 0.606 ± 0.041
0.1 µM, coculture fibroblast: Hs343T | 0.761 ± 0.028 | 0.706 ± 0.025 | 0.67 ± 0.013 | 0.622 ± 0.0095 | 0.6059 ± 0.0023 | 0.57 ± 0.013 | 0.5681 ± 0.0044 | 0.56 ± 0.0096 | 0.553 ± 0.012
0.1 µM, coculture fibroblast: WS1 | 0.7822 ± 0.003 | 0.711 ± 0.018 | 0.7 ± 0.014 | 0.631 ± 0.014 | 0.603 ± 0.0027 | 0.586 ± 0.013 | 0.568 ± 0.017 | 0.552 ± 0.028 | 0.547 ± 0.032
1 µM, coculture fibroblast: C12385 | 0.756 ± 0.021 | 0.694 ± 0.027 | 0.678 ± 0.04 | 0.609 ± 0.041 | 0.57 ± 0.048 | 0.558 ± 0.061 | 0.549 ± 0.063 | 0.543 ± 0.076 | 0.551 ± 0.085
1 µM, coculture fibroblast: H6013 | 0.783 ± 0.014 | 0.749 ± 0.027 | 0.746 ± 0.037 | 0.738 ± 0.046 | 0.75 ± 0.05 | 0.792 ± 0.068 | 0.764 ± 0.065 | 0.758 ± 0.08 | 0.726 ± 0.068
1 µM, coculture fibroblast: H6019 | 0.739 ± 0.012 | 0.673 ± 0.015 | 0.652 ± 0.035 | 0.587 ± 0.048 | 0.554 ± 0.053 | 0.546 ± 0.059 | 0.512 ± 0.07 | 0.488 ± 0.065 | 0.468 ± 0.063
1 µM, coculture fibroblast: H6076 | 0.73 ± 0.023 | 0.659 ± 0.077 | 0.68 ± 0.092 | 0.647 ± 0.095 | 0.659 ± 0.11 | 0.649 ± 0.13 | 0.682 ± 0.15 | 0.688 ± 0.15 | 0.699 ± 0.15
1 µM, coculture fibroblast: H6231 | 0.71 ± 0.029 | 0.615 ± 0.03 | 0.663 ± 0.012 | 0.583 ± 0.037 | 0.566 ± 0.032 | 0.554 ± 0.031 | 0.551 ± 0.035 | 0.54 ± 0.04 | 0.533 ± 0.055
1 µM, coculture fibroblast: HADF | 0.788 ± 0.069 | 0.703 ± 0.032 | 0.678 ± 0.034 | 0.655 ± 0.033 | 0.654 ± 0.022 | 0.6827 ± 0.0051 | 0.625 ± 0.018 | 0.621 ± 0.028 | 0.59 ± 0.038
1 µM, coculture fibroblast: HCFa | 0.7521 ± 0.0025 | 0.711 ± 0.014 | 0.679 ± 0.011 | 0.6482 ± 0.0013 | 0.634 ± 0.0065 | 0.654 ± 0.011 | 0.591 ± 0.014 | 0.587 ± 0.022 | 0.535 ± 0.023
1 µM, coculture fibroblast: HCPF | 0.759 ± 0.0026 | 0.704 ± 0.035 | 0.72 ± 0.051 | 0.668 ± 0.062 | 0.647 ± 0.06 | 0.625 ± 0.07 | 0.614 ± 0.074 | 0.606 ± 0.077 | 0.594 ± 0.08
1 µM, coculture fibroblast: HHSteC | 0.797 ± 0.022 | 0.791 ± 0.041 | 0.761 ± 0.04 | 0.725 ± 0.041 | 0.723 ± 0.03 | 0.743 ± 0.041 | 0.681 ± 0.054 | 0.668 ± 0.056 | 0.624 ± 0.054
1 µM, coculture fibroblast: HMF | 0.75 ± 0.0091 | 0.671 ± 0.045 | 0.67 ± 0.054 | 0.631 ± 0.056 | 0.614 ± 0.072 | 0.588 ± 0.071 | 0.608 ± 0.08 | 0.598 ± 0.086 | 0.601 ± 0.096
1 µM, coculture fibroblast: HPFa | 0.8797 ± 0.0042 | 0.838 ± 0.046 | 0.823 ± 0.049 | 0.778 ± 0.061 | 0.775 ± 0.074 | 0.787 ± 0.072 | 0.717 ± 0.08 | 0.696 ± 0.079 | 0.634 ± 0.09
1 µM, coculture fibroblast: HUF | 0.792 ± 0.012 | 0.7056 ± 0.005 | 0.686 ± 0.012 | 0.6226 ± 0.0031 | 0.5748 ± 0.0012 | 0.558 ± 0.011 | 0.535 ± 0.022 | 0.531 ± 0.03 | 0.525 ± 0.036
1 µM, coculture fibroblast: Hs5 | 0.743 ± 0.016 | 0.698 ± 0.0038 | 0.7123 ± 0.0043 | 0.669 ± 0.012 | 0.66 ± 0.018 | 0.63 ± 0.019 | 0.664 ± 0.018 | 0.655 ± 0.026 | 0.666 ± 0.026
1 µM, coculture fibroblast: Hs27A | 0.79 ± 0.021 | 0.719 ± 0.043 | 0.732 ± 0.026 | 0.717 ± 0.03 | 0.715 ± 0.034 | 0.804 ± 0.04 | 0.715 ± 0.048 | 0.728 ± 0.046 | 0.662 ± 0.051
1 µM, coculture fibroblast: Hs343T | 0.7436 ± 0.007 | 0.662 ± 0.047 | 0.668 ± 0.052 | 0.635 ± 0.061 | 0.632 ± 0.072 | 0.606 ± 0.074 | 0.616 ± 0.073 | 0.61 ± 0.077 | 0.611 ± 0.081
1 µM, coculture fibroblast: WS1 | 0.7282 ± 0.0024 | 0.665 ± 0.014 | 0.648 ± 0.031 | 0.583 ± 0.037 | 0.54 ± 0.024 | 0.532 ± 0.017 | 0.515 ± 0.015 | 0.5 ± 0.011 | 0.4983 ± 0.0018
